According to PMC4235218:

Assays:
[1] = molecular target: T1, m1-peptide displayed on phage (m1-phage); assay: far-Western, overlay or dot blot; qualitative dot blot: phages (2x10^10/dot) or CD4 (1 μg/dot) on nitrocellulose, envelope protein 2.5-5 μg/ml overnight at 4°C in 5% skim milk/TBS, bound envelope detected with HIVIg or mAbs; both purified
T1 sequence (peptide): CDRRDLPQWAKREC

[2] = molecular target: T2, 2A6 peptide displayed on phage (phage 2A6); assay: far-Western, overlay or dot blot; semi-quantitative dot blot: equal amounts of phages in two fold serial dilutions on nitrocellulose, gp120 CDC451 followed by HIVIg or CG10, densitometry; both purified
T2 sequence (peptide): CDRRDLPQWAIREC

[3] = molecular target: T3, m2-peptide displayed on phage (m2-phage); assay: as above
T3 sequence (peptide): CDRRDLPDWAIRAC

[4] = molecular target: T4, scrambled version of the m2-peptide displayed on phage; assay: SPR; BIACORE T-200; p3-biotinylated phages (300 RU) on streptavidin-coated CM5 chips; 1 μM analyte (gp120 CDC451, CG10 or gp120 + CG10) for 2 min at 50 μl/min; 25°C, 20 mM sodium phosphate pH 7.0 (PBS); both purified
T4 sequence (peptide): CDLWRIRADRAPDC

[5] = molecular target: T5, m3-peptide displayed on phage (m3-phage); assay: as above
T5 sequence (peptide): CSRSDLPEWAVRTC

[6] = molecular target: T3, m2-peptide displayed on phage (m2-phage); assay: as above
[7] = molecular target: T1, m1-peptide displayed on phage (m1-phage); assay: as above
[8] = molecular target: T1, m1-peptide displayed on phage (m1-phage); assay: ELISA; phages captured on wells by an anti-M13 mAb; gp120 CDC451, CD4 or pre-formed 1:1 gp120:CD4 complex added (5-10 μg/ml, 5% skim milk/TBS, 1 hr room temperature); gp120 detected with biotinylated 9G3, CD4 with biotinylated CG9; both purified
[9] = molecular target: T3, m2-peptide displayed on phage (m2-phage); assay: far-Western, overlay or dot blot; qualitative dot blot: phages (2x10^10/dot) or CD4 (1 μg/dot) on nitrocellulose, envelope protein 2.5-5 μg/ml overnight at 4°C in 5% skim milk/TBS, bound envelope detected with HIVIg or mAbs; both purified
[10] = molecular target: HIV-1 BaL gp120 D368R mutant (HIV-1 (isolate BaL)); assay: ELISA; gp120 BaL (wild type or D368R) captured on wells by an immobilised antibody (b12, 1B6 or HIVIg); phages (2x10^10/well) or CD4 added; phages detected with anti-M13, CD4 with biotinylated CG9; both purified
[11] = molecular target: HIV-1 BaL gp120, recombinant (HIV-1 (isolate BaL)); assay: as above

In the case of “HIV-1 CDC451 gp120, monomeric recombinant”, the binding [1] is reported as “binds”, the binding [2] is reported as “binds” and the binding [3] is reported as “binds”. The binding [4] was “no binding (tested: 1 μM)”, the binding [5] was “binds” and the binding [6] was “binds”. The binding [7] was “binds” and the binding [8] was “binds”.

With “soluble recombinant CD4 protein (D1-D4 domains) (receptor)” the binding [8] was “no binding (tested: 5–10 μg/ml)”.

In the case of HIV-1 BaL gp120, recombinant, the binding [9] is reported as “binds”.

With CDRRDLPDWAIRAC [m2-peptide displayed on phage (m2-phage)] the binding [10] was “binds” and the binding [11] was “binds”.

Results are given in words; binding and its absence hold for the method and conditions named. For part of these data: Binding calls can cover weak binding; strength is not graded here.
